From publication doi:10.1101/2021.10.21.465349

By UniProt entry, the sequences of proteins in these tests, tags left out.
UniProt Q8TEK3: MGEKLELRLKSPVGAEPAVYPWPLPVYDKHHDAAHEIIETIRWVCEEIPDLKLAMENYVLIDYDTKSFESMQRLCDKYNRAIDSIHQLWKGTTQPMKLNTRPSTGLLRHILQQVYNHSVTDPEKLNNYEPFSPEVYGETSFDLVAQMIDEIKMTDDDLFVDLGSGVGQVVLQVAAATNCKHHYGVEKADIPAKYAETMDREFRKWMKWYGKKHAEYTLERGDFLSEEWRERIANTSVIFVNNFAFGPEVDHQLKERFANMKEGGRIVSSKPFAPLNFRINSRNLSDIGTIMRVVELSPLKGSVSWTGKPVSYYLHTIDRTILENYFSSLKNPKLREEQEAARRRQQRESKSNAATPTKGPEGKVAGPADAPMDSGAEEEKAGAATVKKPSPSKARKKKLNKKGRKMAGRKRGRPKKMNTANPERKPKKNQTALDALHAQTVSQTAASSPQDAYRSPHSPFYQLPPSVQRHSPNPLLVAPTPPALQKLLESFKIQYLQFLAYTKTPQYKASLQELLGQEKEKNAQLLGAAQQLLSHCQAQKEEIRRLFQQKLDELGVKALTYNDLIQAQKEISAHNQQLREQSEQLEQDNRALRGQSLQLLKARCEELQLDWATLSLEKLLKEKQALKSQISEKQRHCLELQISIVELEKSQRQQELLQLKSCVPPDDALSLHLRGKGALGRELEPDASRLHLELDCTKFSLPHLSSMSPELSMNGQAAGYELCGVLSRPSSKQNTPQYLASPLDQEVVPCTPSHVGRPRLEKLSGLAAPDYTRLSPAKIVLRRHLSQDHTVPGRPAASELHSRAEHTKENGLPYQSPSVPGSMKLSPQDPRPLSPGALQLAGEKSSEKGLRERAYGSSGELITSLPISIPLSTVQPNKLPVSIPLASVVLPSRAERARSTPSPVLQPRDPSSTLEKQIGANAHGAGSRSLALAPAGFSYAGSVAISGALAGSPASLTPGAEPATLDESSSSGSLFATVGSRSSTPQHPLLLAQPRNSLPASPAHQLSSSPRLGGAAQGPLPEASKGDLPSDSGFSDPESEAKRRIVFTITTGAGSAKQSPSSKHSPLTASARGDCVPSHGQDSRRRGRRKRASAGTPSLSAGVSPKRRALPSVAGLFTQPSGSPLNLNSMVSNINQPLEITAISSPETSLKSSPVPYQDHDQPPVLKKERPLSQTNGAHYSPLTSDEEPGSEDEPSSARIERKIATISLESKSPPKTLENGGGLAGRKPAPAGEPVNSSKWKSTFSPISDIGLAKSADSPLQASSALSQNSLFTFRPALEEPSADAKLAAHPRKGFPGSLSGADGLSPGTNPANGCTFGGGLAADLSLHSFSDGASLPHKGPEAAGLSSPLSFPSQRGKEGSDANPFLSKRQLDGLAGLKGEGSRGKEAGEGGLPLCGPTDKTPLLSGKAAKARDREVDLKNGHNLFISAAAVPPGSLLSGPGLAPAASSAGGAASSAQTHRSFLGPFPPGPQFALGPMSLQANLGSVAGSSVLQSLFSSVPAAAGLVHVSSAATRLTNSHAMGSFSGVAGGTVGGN
UniProt Q91ZW3: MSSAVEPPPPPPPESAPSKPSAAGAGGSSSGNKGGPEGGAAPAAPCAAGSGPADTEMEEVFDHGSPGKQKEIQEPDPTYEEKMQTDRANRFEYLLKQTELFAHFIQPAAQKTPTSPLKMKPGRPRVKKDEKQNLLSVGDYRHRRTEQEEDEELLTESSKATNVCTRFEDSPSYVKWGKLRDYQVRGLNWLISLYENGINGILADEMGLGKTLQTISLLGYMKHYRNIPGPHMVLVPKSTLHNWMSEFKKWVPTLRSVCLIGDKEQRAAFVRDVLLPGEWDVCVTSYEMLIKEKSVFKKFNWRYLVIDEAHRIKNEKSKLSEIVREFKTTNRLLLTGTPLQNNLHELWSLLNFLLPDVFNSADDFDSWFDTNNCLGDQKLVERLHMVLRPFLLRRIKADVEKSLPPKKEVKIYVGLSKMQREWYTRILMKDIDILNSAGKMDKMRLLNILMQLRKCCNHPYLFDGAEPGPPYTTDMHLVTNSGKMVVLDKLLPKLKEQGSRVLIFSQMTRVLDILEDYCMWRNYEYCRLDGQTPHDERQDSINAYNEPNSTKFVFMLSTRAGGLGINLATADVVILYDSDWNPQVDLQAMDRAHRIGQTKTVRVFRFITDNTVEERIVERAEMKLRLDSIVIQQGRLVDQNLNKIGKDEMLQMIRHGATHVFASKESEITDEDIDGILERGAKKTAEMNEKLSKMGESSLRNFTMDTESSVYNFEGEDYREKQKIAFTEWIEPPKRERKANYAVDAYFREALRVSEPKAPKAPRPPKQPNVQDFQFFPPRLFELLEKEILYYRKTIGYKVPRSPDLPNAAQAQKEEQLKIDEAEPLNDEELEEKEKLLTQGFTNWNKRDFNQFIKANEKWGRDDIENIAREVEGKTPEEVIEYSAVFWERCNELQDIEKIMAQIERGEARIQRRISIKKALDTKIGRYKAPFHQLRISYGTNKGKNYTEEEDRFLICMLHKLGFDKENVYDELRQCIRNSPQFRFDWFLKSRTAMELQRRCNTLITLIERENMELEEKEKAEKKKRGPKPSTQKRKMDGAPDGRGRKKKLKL

Columns and labels:
[1] = molecular target: HA-tagged human DOT1L (human) (UniProt Q8TEK3); assay: affinity purification with mass spectrometry
[2] = molecular target: HA-tagged human DOT1L (human) (UniProt Q8TEK3); assay: affinity purification with mass spectrometry; remark: listed apart in the source

binding [1]	binding [2]	Molecule
binds	–	SMARCA5 (SNF2H) (from UniProt Q91ZW3 1-1051) (enzyme)
–	binds	HMGA1 (High Mobility Group protein A1) (protein, UniProt P17095 1-107) MSESGSKSSQPLASKQEKDGTEKRGRGRPRKQPPVSPGTALVGSQKEPSEVPTPKRPRGRPKGSKNKGAAKTRKVTTAPGRKPRGRPKKLEKEEEEGISQESSEEEQ
–	binds	MLLT10 (AF10) (protein, UniProt O54826 1-1068) MVSSDRPVSLEDEVSHSMKEMIGGCCVCSDERGWAENPLVYCDGHGCSVAVHQACYGIVQVPTGPWFCRKCESQERAARVRCELCPHKDGALKRTDNGGWAHVVCALYIPEVQFANVSTMEPIVLQSVPHDRYNKTCYICDEQGRESKAATGACMTCNKHGCRQAFHVTCAQFAGLLCEEEGNGADNVQYCGYCKYHFSKLKKSKRGSNRSYEQSLSDSSSHSQDKHHEKEKKKYKEKDKHKQKHKKQPEPSPALVPSLTVTTEKTYTSTSNNSISGSLKRLEDTAARFTNANFQEVSAHTSSGKDVSEARGSEGKGKKSSAHSSGQRGRKPGAGRNPGTAVSASSPFPQGSFSGTPGSVKSSSGSSVQSPQDFLSFTDSDLRSDSYTHTQQPSSTKDVHKGESGSQEAAVNSFSSLVGHPVTSTVISQPKSFDNSPGELGSSSLPTAGYKRAQTSGIEEEAVKEKKRKGNKQSKHGPGRPKGNKNQENVSHLSVSSASPTSSVASAAGSVTSSSLQKSPTLLRNGSLQSLSVGSSPVGSEISMQYRHDGACPTTTFSELLNAIHNGIYNSNDVAVSFPNVVSGSGSSTPVSSSHIPQQSSGHLQQVGALSPSAASSVTPAAATTQANTVSGSSLSQAPAHMYGSRLNQNPSMAVLIAQSESSQTDQDLGDNARSLGGRGSSPRGSLSPRSPVSNLQLRYDQPSNSSLETVPPVAASIEQLLERQWSEGQQFLLEQGTPGDILGMLKSLHQLQVENRRLEEQIKNLTAKKERLQLLNAQLSVPFPAITTNPSPSHQMHTYTAQTAPPPDSLNSSKSPHIGNSFLPDNSLPVLNQDLTSSGQSTSSSSALSTPPPAGQSPAQQSSGVSGVQQVNGVTVGALASGMQTVTSTIPAVSAVGGIIGALPGNQLAINGIVGALNGVIQTPVTISQNPAPLTHTSVPPNAAHPMPAAALTNSASGLGLLSDQQRQMFIQQQQFQQLLNSQQLTPEQHQAFLYQLMQQQHHPPELQQLQLPGPTQIPINNLLAGAQAPPLHTATTNPFLTIHGDSTSQKVTRLSDKTGPVAQEKS

Like-named read-outs stand apart in the source and are kept apart here. Results are given in words; binding and its absence hold for the method and conditions named. In cells and extracts the contact can be indirect. These calls come from enrichment with a bait or labelling near it, and not all partners need be listed.
